Source: ChEMBL document CHEMBL3988442, “University of Dundee, Small-Polar-MMV Screening Library” (2021).

Chains of the proteins cited; added tags and fusions are not shown.
UniProt P9WNZ1, whole entry: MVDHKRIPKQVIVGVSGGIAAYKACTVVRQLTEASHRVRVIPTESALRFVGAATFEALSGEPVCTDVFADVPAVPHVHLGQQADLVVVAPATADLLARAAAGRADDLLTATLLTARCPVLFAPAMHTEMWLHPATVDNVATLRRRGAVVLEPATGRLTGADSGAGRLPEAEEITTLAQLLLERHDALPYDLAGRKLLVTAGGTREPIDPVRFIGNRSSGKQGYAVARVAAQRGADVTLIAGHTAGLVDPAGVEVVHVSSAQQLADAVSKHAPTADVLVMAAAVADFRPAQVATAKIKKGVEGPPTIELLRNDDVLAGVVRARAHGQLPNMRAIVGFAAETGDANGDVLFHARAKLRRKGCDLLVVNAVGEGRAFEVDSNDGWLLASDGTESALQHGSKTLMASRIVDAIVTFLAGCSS

Leishmania in macrophages: 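Cell assay of Leishmania donovani living inside macrophages; the read-out is not stated. Tested at 30 µM. The record gives no direction; compounds that gave an IC50 in retests scored well above the rest, so higher reads as stronger inhibition. About 69,000 compounds were tested under these conditions; 1.5% (about 1,000) showed 50% or more at least once.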
CoaBC: 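Enzyme assay of CoaBC with a phosphate dye (Biomol Green) read at 650 nm. Target: Coenzyme A biosynthesis protein CoaBC, Mycobacterium tuberculosis (UniProt P9WNZ1). Concentration: 30 µM. Higher reads as stronger inhibition, judged from the few compounds that gave an IC50. Most strong results did not repeat in a second test. Of about 67,000 compounds tested this way, about 40 (0.06%) reached 50% or more in at least one test.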

The filed quantity is “Percent Effect” (%). The record does not define 0% and 100%; most values in the screen are far below 50% and negative numbers occur (in some assays of this library far below -100). The compounds are a random part of those screened. Two or more numbers in one place are separate tests of the same structure; such repeats can differ widely. A dash means the value is not listed here; it may have been measured.

Compound,Leishmania in macrophages,CoaBC
Cc1cccc2cc(C(=O)N3CCSCC3)n(C)c12,2.165,6.653
CNC(=O)c1cn[nH]c1C1CCN(Cc2cccc(C)c2OC)C1 (centres unmarked),25.07,-2.349
CO[C@H]1[C@@H]2CC[C@H]1CN(c1nc(C)nc3sccc13)C2,-,7.056
N#Cc1ccc(CN2CCCC(Cn3cncn3)C2)c(F)c1 (centres unmarked),18.97,-1.739
Cc1nonc1C(=O)N1CCc2c(ncn2CCc2ccccc2)C1,-5.072,-5.372
COc1cc(C(=O)N2CC3(CCNCC3)c3cc(Cl)ccc32)ccn1,-,18.12
[H][C@@]12CCCO[C@]1([H])[C@H](N1CCN(C)CC1)CN2C(=O)c1ccc(C)nc1,22.91,-
Cc1noc(C)c1CCC(=O)N1CCCCC1CNS(C)(=O)=O (centres unmarked),-7.584 & 12.94,1.272
CCC(CC)(CNC(=O)c1cccn1Cc1cccnc1)N(C)C,-3.474,1.613
CN(C)C(=O)CNC(=O)c1ccn(-c2ccc3ccccn23)n1,29.9,7.143
COc1ccc(C)cc1Nc1nc2c(C)nn(C)c2c(=O)n1C,54.75,9.529
Cc1oncc1C(=O)N1CC2CC1(C(=O)N1CCCC1)C2,9.058,-1.158
[H][C@]12CC[C@]([H])(CN(C3CCOCC3)C1)N(C(=O)c1csc(NC)n1)C2,4.94,-
c1cncc(CN(CCCn2ccnc2)CC2CCOC2)c1 (centres unmarked),21.14,-12.35
COc1ccc2c(c1)C1(CCNCC1)CC2NC1CC1 (centres unmarked),-,0.495
COCCN1CCO[C@@H]2CN(C(=O)Cc3ccccc3)CC[C@@H]2C1,-,-2.664
c1cnc(N2CCN(Cc3nnnn3C3CC3)CC2)nc1,13.28,10.92
CCCn1ncc(-c2ccnc(N[C@@H]3C[C@@H]4CC[C@H]3C4)n2)c1C,-,-1.709
Cc1ccc(CN2CC[C@@H](NS(C)(=O)=O)[C@@H]2Cc2ccncc2)o1.O=C(O)C(F)(F)F.O=C(O)C(F)(F)F,6.2,-
CC(C)(C)Oc1ccncc1NCc1cscn1,-5.899,6.638
O=C1CN(C(=O)c2ccc(F)cc2)CC(O)CN1Cc1cccs1 (centres unmarked),-1.279,0.7264
Cc1cccc2nc(CN3CCC(N4CCN(C)C4=O)CC3)cn12,-13.66,0.8805
COCCN1C[C@@H]2CN(Cc3ccoc3)CCC[C@]2(C(=O)O)C1,-,-1.525
COc1c(CNC2CCOc3ccccc32)c(C)nn1C (centres unmarked),22.22,-0.9862
Cc1cccc(CN(C(=O)NCc2ccccn2)C2CC2)c1,4.332,3.571
O=C(NCc1ccccc1CN1CCCC1=O)Nc1nncs1,-11.52,5.697
Cc1cccc(-c2nc(CN(Cc3cccs3)CC3CCCO3)no2)c1 (centres unmarked),-2.177,-0.7833
CCN(CC1CN(Cc2cccc(C#N)c2)CCO1)c1cccnn1 (centres unmarked),15.79,7.025
c1cc(CNCC2CNc3ccnn3C2)cc(OC2CCCC2)n1 (centres unmarked),39.99,12.3
O=C(NCCC(=O)N1CCCCCC1)c1c(O)cc(F)cc1F,22.35,-15.64
CCOc1ccc(N(CC(=O)c2ccccc2)C2=NCCCCC2)cc1,-,5.533
Cc1cc(C[C@@H]2CCC[C@H]2NCc2cccc(F)c2F)on1.O=C(O)CC(O)(CC(=O)O)C(=O)O,-13.99 & 4.016,-
Cc1n[nH]c(C)c1CCCN(C)Cc1c[nH]nc1-c1ccc(F)cc1,7.697,-1.538
CCc1cc(NC(C)(C)C)nc(N2CCOCC2)n1,-8.743,-
c1cnnc(N2CCCC(NCc3ccc(-n4ccnc4)cc3)C2)c1 (centres unmarked),17.07,1.795
O=C(C1CC=CC1)N1CC[C@@H]2O[C@H](COCC3CCOCC3)CC[C@@H]21,-,5.041
COc1cc(C(C)=O)ccc1SCC(=O)Nc1cccc(C)n1,17.94,-
O=C1CC[C@@H]2[C@@H](CCN2C(=O)C2CCOCC2)N1CC1CC1,-,10.04
Cc1cc(CN(C)C(=O)CC(C)C)no1,25.88,1.401
[H][C@]12CNC[C@@]1(C(=O)N(C)Cc1cnc(NC)nc1)CN(C1CCCC1)C2,19.76,-
CN1CCCN(C(=O)c2cccc(S(=O)(=O)NCC3(C)COC3)c2)CC1,8.191,3.23
c1ccc2sc(N3CCOC(Cn4cccn4)C3)nc2c1 (centres unmarked),-0.5743,4.152
COC(C)(CNS(=O)(=O)c1cccnc1)c1ccccc1F (centres unmarked),22.31,3.321
Cc1ccccc1CCC(=O)N1CCc2ncnc(NCCO)c2CC1,29.87,-0.6143
O=c1cnc2ccccc2n1CCCn1cccn1,-23.4,3.831
CN(Cc1ccccc1)CC1(O)CCCN(CC(C)(C)C)C1=O (centres unmarked),31.54,8.017
CC(C)CN1CC(C(=O)NCCc2ccc(OC(F)F)cc2)CC1=O (centres unmarked),11.72,10.81
O=C(Nc1cc(C(F)(F)F)c[nH]c1=O)C1CCNCC1,29.22,-0.8505
Cc1cnn(C2CCCN(C(=O)c3cn(-c4ccccc4)nn3)C2)c1 (centres unmarked),32.88,-6.971
c1coc(CN2CCO[C@H]3[C@H](OCC4CC4)CC[C@@H]32)c1,-,4.97
CCc1nc(CC)n(CC(=O)N(C)CC(F)(F)F)n1,16.38,12.3
CCOCC(=O)N1C[C@H]2CC[C@@H]1CN(C(=O)c1ccncc1)C2,-,-0.6424
CCN(CC)C[C@H]1CN2CC[C@H]1C[C@@H]2CNC(=O)c1ccco1,-,-7.285
CN1CCC(N(Cc2ccccc2)C(=O)c2ccn3ccnc3c2)CC1,8.199,-7.974
Cc1ccc(F)c(OC2CCCN(c3cnn(C)c3)C2=O)c1 (centres unmarked),1.572,-7.692
Cc1ncsc1CN1C[C@@H]2COC[C@]2(CNC(=O)c2ccccc2)C1,-,1.003
COc1ccc(-c2cccc(-c3ccn(CCN(C)C)n3)c2)nn1,7.091,0.3727
Cl.Fc1ccc(CN2CCC(c3n[nH]c4ncccc34)CC2)cc1F,-12.15,-
Cc1cc(C2CCCCN2C(=O)CN2CC3(CCNCC3)OC2=O)no1 (centres unmarked),12.3,2.575
CC(=O)N1CCC(c2nnc3ccc(C(=O)NCC(C)C)cn23)C1 (centres unmarked),-4.522,4.68
CN(C)c1cc2c(nn1)CCN(C(=O)c1cc3c(s1)CCOC3)C2,-1.632,1.873
Cc1ccccc1N1CC2(CCN(Cc3nccn3C)C2)CC1=O (centres unmarked),-,2.596
O=C(O)C(F)(F)F.c1ccc(N2CCCC3(COCCN(c4nccs4)C3)C2)nc1 (centres unmarked),49.44,-
CNC(=O)[C@@H]1C[C@H]2CN(Cc3nccs3)C[C@H]2N1C,-,1.451
CCCNC(=O)CNc1cc(C#N)ccc1OCC,17.65,-0.7712
CC(C)(C)c1n[nH]c(C2CN(C(=O)C3=COCCC3)CCO2)n1 (centres unmarked),-0.3863,2.999
[H][C@]12CCN(C(=O)c3ccco3)[C@@]1([H])CC[C@@H](COCC1CCOCC1)O2,9.376,-
COc1ccc2c(c1)OCC(Cc1ccc(CN)cn1)C2 (centres unmarked),-23.09,-27.42
CCN1CCOCC2(CCCN(C(=O)c3conc3C)C2)C1.O=C(O)C(F)(F)F (centres unmarked),30.2,-
CCC1=N[C@@]2(CC[C@@H]3CN(Cc4cccc(Cl)c4)C[C@@H]32)C(=O)N1C,-,0.9877
CNC(=O)C1CCC2(CCNCC2)C1 (centres unmarked),-,3.817
COCCCNC(=O)c1cc(-c2cnc(N(C)C)nc2)cn1CC1CC1,-,-3.294
Cn1ccnc1CN1CCN2C[C@H](Oc3ccccc3)C[C@H]2C1,-,-4.56
O=C(CCCOc1ccccc1)N1CCCC(n2cncn2)C1 (centres unmarked),1.165,1.842
CCCc1cc(=O)[nH]c2nnc(SCC(=O)OCC)n12,-38.31,0.3745
O=C(NCCSC1CCCC1)c1cnccn1,-12.07,-1.923
O=C(CN1CCCC(c2ccn[nH]2)C1)Nc1nc2c(s1)CCCC2 (centres unmarked),57.39,-3.823
Cc1ccc(-c2nc(CN3CCCC3Cn3cncn3)co2)cc1 (centres unmarked),21.61,1.136
CN1CCC(c2ncc3c(n2)CCN(C(=O)CC2C=CCC2)C3)CC1 (centres unmarked),29.99,2.487

Some entries from above, unchanged:

| Compound | Leishmania in macrophages | CoaBC |
|---|---|---|
| `COCCN1C[C@@H]2CN(Cc3ccoc3)CCC[C@]2(C(=O)O)C1` | - | -1.525 |
| `CN1CCCN(C(=O)c2cccc(S(=O)(=O)NCC3(C)COC3)c2)CC1` | 8.191 | 3.23 |
| `O=C(O)C(F)(F)F.c1ccc(N2CCCC3(COCCN(c4nccs4)C3)C2)nc1` (centres unmarked) | 49.44 | - |
| `O=C(NCc1ccccc1CN1CCCC1=O)Nc1nncs1` | -11.52 | 5.697 |
| `CC(C)CN1CC(C(=O)NCCc2ccc(OC(F)F)cc2)CC1=O` (centres unmarked) | 11.72 | 10.81 |
| `Cc1cc(CN(C)C(=O)CC(C)C)no1` | 25.88 | 1.401 |